Assay results taken from article PMC10977041.
No constants are given. Whether binding was seen depends on the method and setting. In cells and extracts the contact can be indirect. Some results given as binding are weak or reduced against the parent protein; the word gives no strength. For some assays here: Tags and fused reporters may be left off the sequences shown.

By UniProt entry, the sequences of proteins in these tests, tags left out.
UniProt O95863: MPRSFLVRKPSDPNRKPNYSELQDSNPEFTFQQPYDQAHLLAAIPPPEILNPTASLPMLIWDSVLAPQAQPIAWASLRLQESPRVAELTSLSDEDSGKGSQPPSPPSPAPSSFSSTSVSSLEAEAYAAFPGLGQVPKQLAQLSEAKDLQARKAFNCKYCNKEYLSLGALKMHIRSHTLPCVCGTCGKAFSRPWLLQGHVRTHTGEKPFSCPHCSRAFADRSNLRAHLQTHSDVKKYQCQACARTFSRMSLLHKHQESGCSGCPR

B1: HA-tagged MARCH2 (membrane-associated RING-CH2), wild type (protein, UniProt Q9P0N8 1-246)
chain: MTTGDCCHLPGSLCDCSGSPAFSKVVEATGLGPPQYVAQVTSRDGRLLSTVIRALDTPSDGPFCRICHEGANGECLLSPCGCTGTLGAVHKSCLEKWLSSSNTSYCELCHTEFAVEKRPRPLTEWLKDPGPRTEKRTLCCDMVCFLFITPLAAISGWLCLRGAQDHLRLHSQLEAVGLIALTIALFTIYVLWTLVSFRYHCQLYSEWRKTNQKVRLKIREADSPEGPQHSPLAAGLLKKVAEETPV
B2: endogenous MARCH2 (protein, UniProt Q9P0N8 1-246)
chain: B1 chain

Experiments:
[1] = biological target: FLAG-SNAIL (UniProt O95863); assay: co-IP; FLAG-SNAIL precipitated with anti-flag M2 affinity gel from NP40 lysates of MDA-MB-231 cells coexpressing FLAG-SNAIL and HA-MARCH2; 1 hour at room temperature; blotted with anti-HA; also with vehicle or P21d for 4 or 18 hours in the presence of MG132
[2] = biological target: endogenous SNAIL (human (endogenous in MDA-MB-231)) (UniProt O95863); assay: proximity ligation; Duolink PLA on fixed, permeabilised MDA-MB-231 cells with antibodies to Snail and MARCH2; DMSO or P21d for 8 hours, MG132 for the last 4 hours; PLA signals per cell counted with ImageJ

Binder | binding [1] | binding [2]
B1 | binds | –
B2 | – | binds
